Reference: doi:10.1101/2025.07.24.666230
Results are given in words; binding and its absence hold for the method and conditions named. Binding seen in cells or lysates may run through a third protein. Some results given as binding are weak or reduced against the parent protein; the word gives no strength. For part of these data: Where a sequence is shown, tags or fusion partners need not be part of it.

The chains behind the UniProt entries cited, without tags or fusion partners. Where a name states a change or a piece, a line headed by the entry shows the natural chain unless it says otherwise.
UniProt P11413, whole entry: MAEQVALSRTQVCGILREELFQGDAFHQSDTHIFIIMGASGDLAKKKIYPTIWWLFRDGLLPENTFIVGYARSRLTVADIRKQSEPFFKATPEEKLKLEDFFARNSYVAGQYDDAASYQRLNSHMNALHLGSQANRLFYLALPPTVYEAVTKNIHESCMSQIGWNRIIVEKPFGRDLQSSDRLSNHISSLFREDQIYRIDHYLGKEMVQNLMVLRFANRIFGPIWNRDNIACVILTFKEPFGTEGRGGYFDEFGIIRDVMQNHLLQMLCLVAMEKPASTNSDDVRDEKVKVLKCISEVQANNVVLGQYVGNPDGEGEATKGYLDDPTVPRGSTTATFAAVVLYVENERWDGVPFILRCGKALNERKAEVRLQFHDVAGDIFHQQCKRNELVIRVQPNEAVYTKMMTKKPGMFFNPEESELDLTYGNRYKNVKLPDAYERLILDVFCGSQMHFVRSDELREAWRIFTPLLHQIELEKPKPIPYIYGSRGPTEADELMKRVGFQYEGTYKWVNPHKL

Tests used:
[1] = biological target: T1, NADK palmitoylation deficient mutant (3CS: C22S/C23S/C26S) (human) (UniProt O95544); assay: co-IP
T1 sequence: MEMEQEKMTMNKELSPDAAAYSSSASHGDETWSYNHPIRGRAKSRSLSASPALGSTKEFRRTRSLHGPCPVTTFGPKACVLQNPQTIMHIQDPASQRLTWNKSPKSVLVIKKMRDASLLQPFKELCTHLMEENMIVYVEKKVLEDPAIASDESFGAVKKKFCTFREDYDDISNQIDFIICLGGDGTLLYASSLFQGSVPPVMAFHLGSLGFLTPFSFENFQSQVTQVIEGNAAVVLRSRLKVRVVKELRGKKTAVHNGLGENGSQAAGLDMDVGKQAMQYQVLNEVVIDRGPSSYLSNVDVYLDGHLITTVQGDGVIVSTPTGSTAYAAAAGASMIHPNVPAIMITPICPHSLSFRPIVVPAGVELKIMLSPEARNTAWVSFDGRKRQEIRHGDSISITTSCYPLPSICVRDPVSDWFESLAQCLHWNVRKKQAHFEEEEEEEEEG

[2] = biological target: T2, His-NADK recombinant protein (pET-28a-NADK) (human) (UniProt O95544); assay: pull-down
T2 sequence: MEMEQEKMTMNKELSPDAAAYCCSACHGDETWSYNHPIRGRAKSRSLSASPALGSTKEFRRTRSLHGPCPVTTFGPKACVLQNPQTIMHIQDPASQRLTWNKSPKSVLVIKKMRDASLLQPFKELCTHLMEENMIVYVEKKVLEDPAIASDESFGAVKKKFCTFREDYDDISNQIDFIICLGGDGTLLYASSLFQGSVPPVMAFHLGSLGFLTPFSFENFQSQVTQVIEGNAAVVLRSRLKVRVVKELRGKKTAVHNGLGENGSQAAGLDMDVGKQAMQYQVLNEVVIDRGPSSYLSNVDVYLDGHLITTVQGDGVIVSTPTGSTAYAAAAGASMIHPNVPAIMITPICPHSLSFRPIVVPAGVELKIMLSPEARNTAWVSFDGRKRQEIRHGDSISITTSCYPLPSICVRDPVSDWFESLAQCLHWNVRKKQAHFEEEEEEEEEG

[3] = biological target: T3, HA-NADK (NAD kinase), wild type (human) (UniProt O95544); assay: co-IP
T3 sequence: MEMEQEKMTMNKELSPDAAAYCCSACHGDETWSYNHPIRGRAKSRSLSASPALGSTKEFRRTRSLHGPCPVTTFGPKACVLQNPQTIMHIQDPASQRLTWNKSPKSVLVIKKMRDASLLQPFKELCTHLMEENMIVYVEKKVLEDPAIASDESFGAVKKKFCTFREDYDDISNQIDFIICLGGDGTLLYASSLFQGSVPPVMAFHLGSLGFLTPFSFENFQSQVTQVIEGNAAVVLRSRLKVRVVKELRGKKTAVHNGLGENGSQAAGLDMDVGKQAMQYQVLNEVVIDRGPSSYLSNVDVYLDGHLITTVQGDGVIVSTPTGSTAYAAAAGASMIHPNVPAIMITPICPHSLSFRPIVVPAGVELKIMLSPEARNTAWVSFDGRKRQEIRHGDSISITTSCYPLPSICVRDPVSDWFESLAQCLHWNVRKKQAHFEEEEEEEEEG

G6PD (from UniProt P11413 1-515) (enzyme)
binding [1]: binds

B1: Flag-ABHD17A (enzyme, UniProt Q96GS6 1-310)
chain: MNGLSLSELCCLFCCPPCPGRIAAKLAFLPPEATYSLVPEPEPGPGGAGAAPLGTLRASSGAPGRWKLHLTERADFQYSQRELDTIEVFPTKSARGNRVSCMYVRCVPGARYTVLFSHGNAVDLGQMSSFYIGLGSRLHCNIFSYDYSGYGASSGRPSERNLYADIDAAWQALRTRYGISPDSIILYGQSIGTVPTVDLASRYECAAVVLHSPLTSGMRVAFPDTKKTYCFDAFPNIEKVSKITSPVLIIHGTEDEVIDFSHGLALYERCPKAVEPLWVEGAGHNDIELYSQYLERLRRFISQELPSQRA
binding [2]: binds | binding [3]: binds
